# Where a name gives a salt, the structure may show the parent alone. The list shows a part of the results. Hit calls seldom repeat between salt and free forms of one compound.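 Kinases were expressed as nanoluciferase fusions in K562 cells and luminescence was read every 4 h between 2 and 18 h as percent of control, DMSO set to 100% and a positive control to 0%. A time point counts as decreased when the signal drops significantly (2 sigma). The hit call is the authors' own, does not follow from the count of time points alone, and its rule is not shown.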
# By UniProt entry, the sequences of proteins in these tests, tags left out. Where a name states a change or a piece, a line headed by the entry shows the natural chain unless it says otherwise.
# UniProt P07947, whole entry, looked up: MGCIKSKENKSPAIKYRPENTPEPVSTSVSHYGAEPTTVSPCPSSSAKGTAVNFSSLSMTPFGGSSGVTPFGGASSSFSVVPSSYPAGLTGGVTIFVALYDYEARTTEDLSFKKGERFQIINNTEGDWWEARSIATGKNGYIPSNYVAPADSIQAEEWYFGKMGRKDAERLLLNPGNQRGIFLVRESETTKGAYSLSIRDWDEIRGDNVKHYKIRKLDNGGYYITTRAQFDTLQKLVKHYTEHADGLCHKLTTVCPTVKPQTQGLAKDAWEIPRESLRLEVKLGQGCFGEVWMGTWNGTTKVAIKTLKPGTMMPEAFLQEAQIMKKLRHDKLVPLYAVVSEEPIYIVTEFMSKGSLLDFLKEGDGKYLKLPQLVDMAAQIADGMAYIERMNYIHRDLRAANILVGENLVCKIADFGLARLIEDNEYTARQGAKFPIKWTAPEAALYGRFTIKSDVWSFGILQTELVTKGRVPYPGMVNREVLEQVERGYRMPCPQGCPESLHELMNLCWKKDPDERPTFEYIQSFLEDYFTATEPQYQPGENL
# UniProt P43403: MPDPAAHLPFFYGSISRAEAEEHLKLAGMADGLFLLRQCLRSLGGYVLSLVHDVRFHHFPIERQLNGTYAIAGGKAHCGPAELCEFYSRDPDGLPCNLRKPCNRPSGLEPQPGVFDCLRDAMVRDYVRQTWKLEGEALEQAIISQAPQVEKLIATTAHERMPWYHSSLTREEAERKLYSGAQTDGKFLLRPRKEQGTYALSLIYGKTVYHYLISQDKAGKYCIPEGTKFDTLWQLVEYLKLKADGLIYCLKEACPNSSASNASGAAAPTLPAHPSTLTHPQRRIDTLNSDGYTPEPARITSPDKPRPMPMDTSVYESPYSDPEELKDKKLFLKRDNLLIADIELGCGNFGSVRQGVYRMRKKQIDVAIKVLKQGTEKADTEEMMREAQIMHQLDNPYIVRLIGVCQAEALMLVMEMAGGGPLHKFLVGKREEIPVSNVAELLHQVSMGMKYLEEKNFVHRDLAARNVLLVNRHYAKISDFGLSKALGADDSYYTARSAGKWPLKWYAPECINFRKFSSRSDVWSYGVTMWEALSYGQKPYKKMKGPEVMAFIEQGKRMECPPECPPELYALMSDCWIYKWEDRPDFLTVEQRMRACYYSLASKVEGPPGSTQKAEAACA
# UniProt P11802: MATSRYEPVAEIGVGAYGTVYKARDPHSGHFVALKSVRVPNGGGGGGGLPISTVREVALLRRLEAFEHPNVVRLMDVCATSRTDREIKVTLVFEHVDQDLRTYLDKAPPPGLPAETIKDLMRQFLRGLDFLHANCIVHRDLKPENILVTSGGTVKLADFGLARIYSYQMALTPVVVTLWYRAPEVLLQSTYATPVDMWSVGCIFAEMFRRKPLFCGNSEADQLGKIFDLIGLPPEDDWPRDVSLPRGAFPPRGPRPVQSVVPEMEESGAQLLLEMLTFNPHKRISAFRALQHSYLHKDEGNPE
# UniProt P50613: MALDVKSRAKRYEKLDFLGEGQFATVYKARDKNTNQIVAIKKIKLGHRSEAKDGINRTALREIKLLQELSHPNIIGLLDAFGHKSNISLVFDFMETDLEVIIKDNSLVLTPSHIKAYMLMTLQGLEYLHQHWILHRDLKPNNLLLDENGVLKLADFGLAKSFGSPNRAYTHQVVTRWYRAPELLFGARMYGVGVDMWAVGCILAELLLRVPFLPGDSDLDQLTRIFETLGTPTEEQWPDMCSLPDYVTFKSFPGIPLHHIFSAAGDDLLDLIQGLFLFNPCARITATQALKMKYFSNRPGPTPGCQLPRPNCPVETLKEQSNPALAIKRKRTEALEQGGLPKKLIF
# UniProt P50750, whole entry: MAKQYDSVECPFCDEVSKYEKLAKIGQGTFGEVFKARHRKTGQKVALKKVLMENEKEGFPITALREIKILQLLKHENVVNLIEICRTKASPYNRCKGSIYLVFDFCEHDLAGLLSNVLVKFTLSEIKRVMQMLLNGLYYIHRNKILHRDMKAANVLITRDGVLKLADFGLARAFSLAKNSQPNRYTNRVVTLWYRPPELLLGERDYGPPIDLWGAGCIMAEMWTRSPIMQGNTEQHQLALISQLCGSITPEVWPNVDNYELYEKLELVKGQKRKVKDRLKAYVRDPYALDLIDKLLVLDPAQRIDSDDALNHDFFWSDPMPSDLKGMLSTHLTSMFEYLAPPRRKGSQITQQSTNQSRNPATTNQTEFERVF
# How the values were obtained:
# Conditions in all cases: K562; 2-18 h
# YES1 = YES1 (UniProt P07947); assay: number of time points (of 5) at which kinase-Nluc abundance scored as decreased, DMSO-normalised (count); higher = more persistent destabilization
# ZAK = ZAK (UniProt Q9NYL2); assay: as above
# ZAP70 = ZAP70 (UniProt P43403); assay: as above
# CDK4 = CDK4 (UniProt P11802); assay: number of time points (of 4; 2 h point missing) at which kinase-Nluc abundance scored as decreased, DMSO-normalised (count); higher = more persistent destabilization
# CDK7 = CDK7 (UniProt P50613); assay: as above
# CDK9 = CDK9 (UniProt P50750); assay: as above
Compound,number of time points (YES1),number of time points (ZAK),number of time points (ZAP70),number of time points (CDK4),number of time points (CDK7),number of time points (CDK9)
N#C/C(=C(/N)Sc1ccc(N)cc1)c1ccccc1C(F)(F)F (10 µM),0,0,0,0,0,0
COc1cc(C(C)=O)cc(OC)c1O [Acetosyringone] (10 µM),0,0,0,0,0,0
Nc1n[nH]c2cc(-c3ccc(=O)n(Cc4cccc(Cl)c4)c3)ccc12 (10 µM),0,0,0,0,0,0
CCc1c(C)sc(NC(=S)NC(=O)c2ccc(Cl)cc2)c1C(N)=O (10 µM),0,0,0,0,0,0
CCOc1c([C@H](C)n2nc(C)c3c(N)ncnc32)cc(Cl)c(F)c1[C@@H]1CNC(=O)C1 [Parsaclisib (hydrochloride)] (10 µM),0,0,0,0,0,0
COc1cc(N2CCC(N3CCN(C)CC3)CC2)ccc1Nc1nc2c(c(Nc3ccccc3S(=O)(=O)NC(C)C)n1)CCN2 [Conteltinib] (10 µM),0,0,0,0,0,0
CC1(COc2ccc3c(c2)ncn3-c2ccc3cccc(N4CCC(N)CC4)c3n2)COC1 [Crenolanib] (2.5 µM),0,0,0,0,3,0
c1cc(-c2cnn3cc(-c4ccc(N5CCNCC5)cc4)cnc23)c2cccnc2c1 (2.5 µM),0,0,0,0,1,0
CC(=O)Nc1nc(C)c(-c2nc(N3CCCC(O)C3)no2)s1 (centres undefined) (10 µM),0,0,0,0,0,0
CC[C@H](C)[C@H](NC(=O)[C@H](CCC(=O)O)NC(=O)[C@H](CCCN=C(N)N)NC(=O)[C@H](CCCN=C(N)N)NC(=O)[C@@H](N)CCCCN)C(=O)N[C@@H](CC(C)C)C(=O)N[C@@H](CO)C(=O)N[C@@H](CCCN=C(N)N)C(=O)N[C@@H](CCCN=C(N)N)C(=O)N1CCC[C@H]1C(=O)N[C@@H](CO)C(=O)N[C@@H](Cc1ccc(O)cc1)C(=O)N[C@@H](CCCN=C(N)N)C(=O)O [CREBtide] (10 µM),0,0,0,0,0,0
Nc1cc(C(F)F)c(-c2nc(N3C4CCC3COC4)nc(N3C4CCC3COC4)n2)cn1 (2.5 µM),0,0,0,0,0,0
Cn1ncc(Cl)c1-c1cc(C(=O)N[C@H](CN)Cc2ccc(F)c(F)c2)sc1Cl (10 µM),0,0,0,0,0,0
CC(=O)NCCc1c[nH]c2ccc(O)cc12 [N-Acetyl-5-hydroxytryptamine] (10 µM),0,0,0,0,0,0
CC(C)N(C)c1nc2cc(C(=O)O)ccc2nc1-c1ccc(F)cc1 (10 µM),0,0,0,0,0,0
Cc1nc(NC(=O)NCCc2nnn(CCF)n2)sc1-c1ccc(S(C)(=O)=O)c(F)c1 (10 µM),0,0,0,0,0,0
O=C(CO)N1CCC(c2n[nH]c(-c3ccc(Cl)cc3)c2-c2ccncn2)CC1 (10 µM),0,0,0,0,0,0
O=C(O)c1ccccc1Nc1cccc(C(F)(F)F)c1 [Flufenamic acid] (10 µM),0,0,0,0,0,4

Compound,number of time points (YES1),number of time points (ZAK),number of time points (ZAP70),number of time points (CDK4),number of time points (CDK7),number of time points (CDK9)
C[C@H]1[C@H](OC(=O)CCC(=O)O)O[C@@H]2O[C@@]3(C)CC[C@H]4[C@H](C)CC[C@@H]1[C@@]24OO3 [Artesunate] (2.5 µM),1,0,0,0,1,0
C=C(F)C(=O)N1CCN(c2nc(OC[C@@H]3CCCN3C)nc3c2CCN(c2cccc4cccc(Cl)c24)C3)C[C@@H]1CC#N (2.5 µM),0,0,0,0,0,0
COc1nc(-c2ccnc(NC(=O)C3CC3)c2)sc1C(N)=O [GSK-3β inhibitor 2] (10 µM),0,0,0,0,0,0
CC(C)n1cnc2c(Nc3cccc(Cl)c3)nc(NCCO)nc21 (10 µM),0,0,0,0,0,0
C=C[C@H]1[C@H](O[C@@H]2O[C@H](CO)[C@@H](O)[C@H](O)[C@H]2OC(=O)c2c(O)cc(O)cc2-c2cccc(O)c2)OC=C2C(=O)OCC[C@H]21 [Amarogentin] (10 µM),0,0,0,0,0,0
COc1ccc2c(Oc3ccc(NC(=O)c4c(C)n(CC(C)(C)O)n(-c5ccccc5)c4=O)cc3F)ccnc2c1 (2.5 µM),0,0,0,0,2,0
COc1ncc(Nc2ncc([C@@H](C)N3CCN(S(C)(=O)=O)CC3)cc2-c2nc(C)nc(N)n2)cc1F (10 µM),0,0,0,0,0,0
Cn1cc(-c2ccc3nnc(C(F)(F)c4ccc5ncccc5c4)n3n2)cn1 (10 µM),0,0,0,0,0,0
Cn1cc(-c2ccc(F)c(C(F)(F)F)c2)nc1C1CCN(c2ncnc3[nH]ncc23)CC1 (10 µM),0,0,0,0,0,0
CN(C)c1ncnc2nc[nH]c12 [6-(Dimethylamino)purine] (10 µM),0,0,0,0,0,0
O=C(Nc1ccc(Cl)c(Cl)c1)Nc1ccc2nnsc2c1 (10 µM),0,0,0,0,0,0
O=c1ccoc2cc(O)ccc12 [7-Hydroxy-4H-chromen-4-one] (10 µM),0,0,0,0,0,0
O=C(c1ccc(Nc2nccc(-c3cc4ccccc4s3)n2)cc1)N1CCC(N2CCCC2)CC1 (2.5 µM),0,0,0,0,0,0
COc1ccc(CNc2nc(N(CCO)CCO)nc3c2ncn3C(C)C)cc1 (2.5 µM),0,0,0,0,0,0
C=CC(=O)N1CCC[C@@H](n2nc(C(=O)Nc3ccc(CC(=O)N(C)C)c(C)c3C)c3c(N)ncnc32)C1 (10 µM),0,0,0,0,0,0
O=C(NOCCO)c1ccc2cncn2c1Nc1ccc(I)cc1F (10 µM),0,0,0,0,0,0
C=CS(=O)(=O)c1ccc(Nc2nc(OCC3CCCCC3)c3[nH]cnc3n2)cc1 (2.5 µM),0,0,0,0,0,0

# Two consecutive compounds from above:
Compound,number of time points (YES1),number of time points (ZAK),number of time points (ZAP70),number of time points (CDK4),number of time points (CDK7),number of time points (CDK9)
Cn1cc(-c2ccc3nnc(C(F)(F)c4ccc5ncccc5c4)n3n2)cn1 (10 µM),0,0,0,0,0,0
Cn1cc(-c2ccc(F)c(C(F)(F)F)c2)nc1C1CCN(c2ncnc3[nH]ncc23)CC1 (10 µM),0,0,0,0,0,0

# Reference: the supplement of paper PMC12823440, “Inhibitors supercharge kinase turnover through native proteolytic circuits” (Nature, 2025)
